Results on one molecule are retold here after US9506032B2, “Engineered biological pacemakers” (The United States of America, as represented by the …, priority 2009, dated 2016).

For this experiment, the system named is spontaneously beating ESCs. As to the kind of experiment: Spontaneous action potentials and Ca2+ signals in intact spontaneously beating ESCs (patch clamp with confocal imaging). Conditions: 200 nM, 6 cells. Format: cell-based, Mouse. An excerpt:
Mouse ES cells of line R1 were differentiated into cardiac cells using the “hanging drop” technique. ESCs were isolated from in vitro-grown embryoid bodies by microdissection followed by collagenase treatment. […] At day 2, EBs were transferred into bacteriological petri dishes and cultured in suspension until day 5. […] Individual spontaneously beating ESCs were isolated by microdissection and collagenase treatment.
ESCs differentiated in vitro for 9 to 20 days after plating of 7 days old embryoid bodies were studied during continuous superfusion with solution containing in mmol/L: 140 NaCl, 5.4 KCl, 5 HEPES, 2 MgCl2, 1.8 CaCl2, 10 glucose, (pH adjusted to 7.4 with NaOH). Selection of the cells for patch-clamp technique was based on spontaneous beating. Action potentials were measured at physiological temperature (35±2° C.) with standard current-clamp technique (Axopatch 200, Axon Instruments, Foster City, Calif., USA), pCLAMP7 software was used for data acquisition and analysis (Axon Instruments). Perforated patch-clamp technique was performed with β-escin added to the electrode solution. […]
Fluo-4 measurements are presented in terms of F/F0 (normalized Ca^2+ signal). […] were analyzed by programs developed using Delfi-7 software. The duration and width of LCRs were measured as the time at half-maximal amplitude of the normalized signal.
(The patch-clamp technique gives a direct electrical read-out from membranes.)

With `COC(=O)C1=C(C)NC(C)=C(C(=O)OC)C1c1ccccc1[N+](=O)[O-]` [nifedipine], the “duration of temporal phase with substantial CL variability preceding suppression of beating” value is on record as “about 1 min”.
